# Laboratory results: patent US20160009772A1 (published 2016)
# B1: IRF5(222-467, S430D), S430D phosphomimetic construct of IRF5 (222-467) (other)
# chain: EQLLPDLLISPHMLPLTDLEIKFQYRGRPPRALTISNPHGCRLFYSQLEATQEQVELFGPISLEQVRFPSPEDIPSDKQRFYTNQLLDVLDRGLILQLQGQDLYAIRLCQCKVFWSGPCASAHDSCPNPIQREVKTKLFSLEHFLNELILFQKGQTNTPPPFEIFFCFGEEWPDRKPREKKLITVQVVPVAARLLLEMFSGELSWSADDIRLQISNPDLKDRMVEQFKELHHIWQSQQRLQPVAQA
# Biological target: the molecule itself
# Test: TR-FRET
protein,measurement,value
B1,Kd,600 nM
